# From PubChem BioAssay AID624297 (National Center for Advancing Translational Sciences (NCATS), 2012)
# The whole screen tested about 340,000 compounds, of which about 6,200 (1.8%) were called active. Inconclusive results, whose numbers are uncertain, are shown with a selection of clear calls. Calls follow the shape of the dose curve; as a rule, active = well fitted activation curve with a large enough effect; inconclusive = small, poorly fitted or top-dose-only effect; inactive = no such curve, though single readings can be large or run the other way. Where the call is inconclusive, the potency comes from a doubtful curve fit.
# Experiment: A quantitative high throughput screen for small molecules that induce DNA re-replication in SW480 colon adenocarcinoma cells. Also: nearly all actives have a fitted effect of over 55% in size. As to re-replication activation: % of control where 0% means no effect.
# Conditions: Hoechst DNA content imaging, 48 h; re-replication activation: at 46.1 µM (top of the series) unless noted
# How it was run: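 Per well, 250 cells were exposed to pinned compound for 48 hr. Nuclear DNA was visualised with Hoechst (40 min, 37 C) and total object intensity recorded by fluorescence scanning.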
# Potency is read from the fitted curve at half-maximal effect.
Compound,Potency,re-replication activation
CC(=O)NC(Cc1c[nH]c2ccccc12)C(=O)N/N=C/c1ccccc1 (stereo not drawn),"inconclusive: 1.16 µM [activator, full curve, poor fit]",
CCOC(=O)c1ccc(NC(=O)c2ccc(OC(C)C)c(OC)c2)cc1,,inactive: -2.06%
COc1ccc(NC(=O)CSc2nc(=O)n(CCN3CCOCC3)c3c2CCCC3)c(OC)c1,,inactive: 0.673%
CCOCCCn1c(=S)[nH]c2cc(C(=O)NCCc3ccccc3)ccc2c1=O,"inconclusive: 29.1 µM [activator, single point]",
COc1ccc(-c2cc(C(=O)Nc3ccccc3N3CCOCC3)c3ccccc3n2)cc1OC,"inconclusive: 3.55 µM [activator, single point]",
CCOC(=O)c1oc2ccc(S(=O)(=O)n3nc(-c4ccc(OC)cc4)cc3N)cc2c1C,"inconclusive: 18.4 µM [activator, single point]",
COc1cc(C(=O)Nc2cc3c(cc2N2CCCCC2)n(C)c(=O)n3C)cc(OC)c1OC,,inactive: -2.15%
Cc1cccc(Nc2nc(-c3ccccn3)cs2)n1,"inconclusive: 20.6 µM [activator, single point]",
O=C(c1ccc([N+](=O)[O-])cc1)N1CCN(C2=NS(=O)(=O)c3ccccc32)CC1,,inactive: -3.7%
CC(C)C(C)NC(=O)CSc1ccc(S(=O)(=O)N2CCOCC2)cn1 (stereo not drawn),"inconclusive: 29.1 µM [activator, single point]",
COCCNC(=O)CN1CCC(n2c(C)nc3cc(C(F)(F)F)ccc32)CC1,,inactive: -9.67%
Cc1ccc(NC(=O)c2ccc(CSc3nnnn3C)cc2)cc1,"inconclusive: 14.6 µM [activator, partial curve, poor fit]",
O=C(/C=C/Nc1ccc(S(=O)(=O)Nc2cnc3ccccc3n2)cc1)c1ccccc1,"inconclusive: 16.4 µM [activator, single point]",
Cc1ccc(OCCSc2nnc(C)c(=O)n2N)cc1,"inconclusive: 29.1 µM [activator, single point]",
COc1ccc(Nc2nc(-c3cccc([N+](=O)[O-])c3)nc3ccccc23)cc1,"inconclusive: 16.4 µM [activator, partial curve, poor fit]",
COC(=O)COc1ccc2cc(-c3ccc(OC)cc3)c(=O)oc2c1,"inconclusive: 6.51 µM [activator, partial curve]",
CCN(CC)c1ccc(N2C(=NC(=O)C3CC3)SC3CS(=O)(=O)CC32)cc1 (stereo not drawn),,inactive: -0.417%
CCCCN(CC)CCNC(=O)c1cc2c(=O)n(C)c3ccccc3c2n1C,"inconclusive: 29.1 µM [activator, single point]",
CCc1nnc(NC(=O)CCC(=O)N2CCN(Cc3ccc(OC)c(F)c3)CC2)s1,"inconclusive: 1.64 µM [activator, full curve]",
O=C1c2ccc([N+](=O)[O-])cc2C(=O)N1c1ccc(Cl)cn1,,inactive: 12.5%
CCc1ccc(-c2ccc(SCc3ccccn3)nn2)cc1,"inconclusive: 2.31 µM [activator, single point]",
O=C(NCC(=O)N1CCN(S(=O)(=O)c2ccccc2F)CC1)c1ccc(Br)o1,,inactive: -15.9%
O=C(CNC(=O)c1ccc(F)cc1)N/N=C/c1cc(Br)ccc1OC(=O)/C=C/c1ccco1,"inconclusive: 7.31 µM [activator, single point]",

# One compound at a time, from the list above:
# O=C1c2ccc([N+](=O)[O-])cc2C(=O)N1c1ccc(Cl)cn1 is listed as re-replication activation: inactive: 12.5%
# CCOC(=O)c1ccc(NC(=O)c2ccc(OC(C)C)c(OC)c2)cc1 is listed as re-replication activation: inactive: -2.06%

# (next part)

Compound,Potency,re-replication activation
Cc1ccc(S(=O)(=O)/C(C#N)=C/c2ccccc2OCc2ccccc2)cc1,"inconclusive: 18.4 µM [activator, partial curve, poor fit]",
CC[n+]1c(/C=C/N(C)c2ccccc2)oc2ccc(F)cc21,"inconclusive: 29.1 µM [activator, single point]",
Cc1nc2ccc(NS(=O)(=O)c3c(C)c(C)cc(C)c3C)cc2s1,"inconclusive: 29.1 µM [activator, single point]",
CC(C)c1ccc(NC(=O)CN(Cc2ccccc2)S(C)(=O)=O)cc1,"inconclusive: 29.1 µM [activator, partial curve, poor fit]",
Cc1sc(-n2c(C)cc(/C=N/n3cnnc3)c2C)c(C#N)c1C,,inactive: 6.93%
CC(=O)Nc1ccc(SCC(=O)c2cc(C)n(-c3ccccc3F)c2C)cc1,,inactive: 14.7%
Cn1c(=O)c2c(nc(SCC(=O)N3CCc4ccccc4C3)n2C)n(C)c1=O,,inactive: -3.22%
COc1ccc2cc(Br)ccc2c1CC(=O)NC1CC(C)(C)NC(C)(C)C1,"inconclusive: 25.9 µM [activator, single point]",
CC1=Nc2ccccc2/C1=C\c1nc(-c2ccc(F)cc2)oc1O,"inconclusive: 12.6 µM [activator, single point]",
CC1(OCON)CCCc2ccccc21 (stereo not drawn),"inconclusive: 0.116 µM [activator, full curve, poor fit]",
CC(C)(C)c1ccc(NC(=O)Cn2cnc3cc([N+](=O)[O-])ccc3c2=O)cc1,"inconclusive: 11.6 µM [activator, partial curve]",
CCCc1[nH]nc2c1C(c1ccoc1)C(C#N)=C(N)O2 (stereo not drawn),"inconclusive: 32.6 µM [activator, partial curve, poor fit]",
CCOC(=O)c1cc2c(C)n(-c3ccc(C)cc3)c(C)c2ccc1=O,"inconclusive: 11.6 µM [activator, partial curve, poor fit]",
Cc1cc(C(=O)NC2CCCc3c2cnn3-c2ccc(C(C)(C)C)cc2)n[nH]1 (stereo not drawn),,inactive: 2.68%
O=C(O)c1cc(-c2ccc(/C=C3\NC(=O)N(c4ccccc4)C3=O)o2)ccc1Cl,"inconclusive: 3.66 µM [activator, single point]",
Cc1c(C(=O)Nc2ccccc2C(=O)N2CCOCC2)cccc1[N+](=O)[O-],"inconclusive: 16.4 µM [activator, single point]",
C[C@H](CO)N1C[C@H](C)[C@@H](CN(C)Cc2ccc(Oc3ccccc3)cc2)Oc2c(NC(=O)C3CC3)cccc2C1=O,"inconclusive: 0.164 µM [activator, single point]",
CC(=O)NCCc1nc2cc(NC(=O)c3ccc([N+](=O)[O-])cc3)ccc2n1C,,inactive: -3.39%
Cc1cc(NC2CCCCC2)nc(-c2ccccc2O)n1,,inactive: 0.0865%
CCc1ccc(OCc2ccc(C(=O)NCc3ccccn3)o2)cc1,,inactive: 3.68%
COc1ccc(C2=NOC(C(=O)NC(C)C)C2)cc1 (stereo not drawn),,inactive: 2.31%
CN1CCN(c2ccccc2NC(=O)Cc2ccc(Cl)cc2)CC1,,inactive: 14.1%
O=S(=O)(NCc1ccccc1)c1ccc(Br)c2nsnc12,"inconclusive: 29.1 µM [activator, partial curve, poor fit]",

Compound,Potency,re-replication activation
COc1ccc2oc(C(=O)OCC(=O)N3C(C)CCCC3C)c(C)c2c1 (stereo not drawn),,inactive: 3.01%
CCOC(=O)c1c(CN2CCN(CC#N)CC2)n(C)c2cc(Br)c(OC)cc12,"inconclusive: 20.6 µM [activator, single point]",
COc1cc(C(=O)OCC(=O)NC2CCCCC2)cc(OC)c1OC,"inconclusive: 32.6 µM [activator, partial curve, poor fit]",
COc1ccc(N(Cc2cc3cccc(C)c3[nH]c2=O)S(C)(=O)=O)cc1,"inconclusive: 29.1 µM [activator, partial curve, poor fit]",
Cc1ccc(-c2cc(C(F)F)n3ncc(C(=O)N4CCc5ccccc54)c3n2)cc1,active: 7.31 µM,
C=CCCC(=O)N(C)CCO,"inconclusive: 2.59 µM [activator, single point]",
CCN(CC)c1ccc(NC(=O)CSc2n[nH]c(-c3ccco3)n2)cc1,"inconclusive: 29.1 µM [activator, single point]",
CCC1CN(C(=O)N2CCC(C(=O)NCc3ccccc3OC)CC2)c2ccccc2O1 (stereo not drawn),"inconclusive: 2.59 µM [activator, full curve, poor fit]",
O=C1CCC[C@@H]2Cc3nc4ccccc4cc3[C@@H]3CCN1[C@H]23,"inconclusive: 4.11 µM [activator, single point]",
CCCCN(CC(=O)NCCOC)C(=O)Cn1nnc2ccccc21,,inactive: 3.57%
COc1ccc(O)c(/C=N\NC(=O)CCn2nnc3ccccc32)c1,"inconclusive: 23.1 µM [activator, single point]",
O=C(N=C1SC2CS(=O)(=O)CC2N1c1ccc(Cl)cc1Cl)C1CC1 (stereo not drawn),"inconclusive: 18.4 µM [activator, single point]",
COc1ccc(-c2nc(NC(C)=O)sc2-c2ccc(OC)cc2)cc1,"inconclusive: 29.1 µM [activator, single point]",
COc1ccccc1N1CCN(C(=O)CSc2nc3ccccc3[nH]2)CC1,,inactive: -8.46%
COC(=O)CSc1[nH]c2ccccc2c1[N+](=O)[O-],,inactive: -3.29%
COc1cc(NC(=O)Nc2ccc3c(c2)OCO3)cc(OC)c1OC,"inconclusive: 14.6 µM [activator, single point]",
Cc1ccc(C)n1-c1ccc(N2CCOCC2)nc1,"inconclusive: 18.4 µM [activator, single point]",
COc1ccc(-c2ccc(C)cc2)cc1[C@H]1[C@@H]2C=CCC[C@@]2(C)C(=O)N1Cc1ccccc1,"inconclusive: 18.4 µM [activator, single point]",
Cc1cc(C(=O)NC(=S)Nc2ccccc2N2CCCC2)ccc1[N+](=O)[O-],"inconclusive: 29.1 µM [activator, single point]",
Cc1ccc(N2C=Nc3ccc(C)c4nc(C)cc2c34)cc1,"inconclusive: 18.4 µM [activator, partial curve, poor fit]",
O=C(Cc1ccccc1[N+](=O)[O-])Nc1nccs1,active: 2.91 µM,
Cc1ccc2ccc3cccnc3c2n1,"inconclusive: 1.16 µM [activator, full curve, poor fit]",

# Part of the list above in another layout:
Compound	Potency	re-replication activation
CCOC(=O)c1c(CN2CCN(CC#N)CC2)n(C)c2cc(Br)c(OC)cc12	inconclusive: 20.6 µM [activator, single point]	
Cc1ccc(-c2cc(C(F)F)n3ncc(C(=O)N4CCc5ccccc54)c3n2)cc1	active: 7.31 µM	
CCCCN(CC(=O)NCCOC)C(=O)Cn1nnc2ccccc21		inactive: 3.57%
